# Experimental data reported in PubChem BioAssay AID192 (DTP/NCI, 2004).
# The list does not hold the whole screen: it gathers tests that were run many times, whatever their T/C, doses with no T/C, and many T/C values between a quarter and a half above the control. Further doses and runs are listed elsewhere. T/C is the treated group as % of the vehicle group. Some doses have a count of surviving animals in place of a T/C: the source files T/C as zero there, which appears to mark a toxic dose or a test without result, not a measured value. Some doses without a T/C left all or most animals alive at the check, yet need not have been tolerated: the source hardly ever lists a survival T/C far under the control, and the zero likely stands for such cases as well. Survivors were counted at the toxicity check, usually on the fifth day, unless a day is given; later deaths do not show. Schedules are NCI's codes, read here as Q, the interval in days (D) or hours (H), X, the number of doses. Some doses were run more than once; the values are given in rising order. For survival time, the PubChem record calls one and a half times the control and up active, and a quarter to a half above the control has no call in these data; cut-offs in other NCI protocols can differ. Marks such as (2×) stand for listed records that agree. Some T/C values are followed by the survivors on the day toxicity was checked, most often the fifth; where none is given, no animal had died by that day.
# System: BDF1 mice, B16 melanoma ip, median survival T/C
# Assay: NCI In Vivo Anticancer Drug Screen. Data for tumor model B16 Melanoma (intraperitoneal) in B6D2F1 (BDF1) mice
# Conditions: T/C endpoint: median survival time, higher T/C = longer survival
# Outline: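 The ratio T/C compares compound-treated mice with vehicle-treated controls, using survival or tumor size as the endpoint in a transplantable tumor model.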
# [1] = dose: 25.0 mg/kg/injection, schedule: Q01DX009 (ip), vehicle: saline with Tween-80
# [2] = dose: 25.0 mg/kg/injection, schedule: Q01DX009 (ip), vehicle: saline
# [3] = dose: 50.0 mg/kg/injection, schedule: Q01DX009 (ip), vehicle: saline
# [4] = dose: 100.0 mg/kg/injection, schedule: Q01DX009 (ip), vehicle: saline
# [5] = dose: 300.0 mg/kg/injection, schedule: Q01DX001 (ip), vehicle: saline
smiles,measurement,setting,value
O=P1(N(CCCl)CCCl)NCCCO1 (stereo not given),T/C,"dose: 6.25 mg/kg/injection, schedule: Q01DX009 (ip), vehicle: saline","94, 98, 98 [9 of 10 alive], 109 % of control [9 of 10 alive]"
same,T/C,"dose: 12.5 mg/kg/injection, schedule: Q01DX009 (ip), vehicle: saline","105, 106, 107, 110, 118 [9 of 10 alive], 121, 128 % of control"
same,T/C,"dose: 12.5 mg/kg/injection, schedule: Q01DX017 (ip), vehicle: saline",125 % of control
same,T/C,"dose: 20.0 mg/kg/injection, schedule: Q01DX009 (ip), vehicle: water",127 % of control
same,survivor count,"dose: 25.0 mg/kg/injection, schedule: Q01DX001 (ip), vehicle: saline",6 of 6
same,T/C,"dose: 25.0 mg/kg/injection, schedule: Q01DX009 (ip), vehicle: Klucel (hydroxypropylcellulose) (HPC)",137 % of control
same,T/C,[1],127 % of control
same,survivor count,[1],6 of 6
same,T/C,[2],"94, 97, 102, 105 [5 of 6 alive], 108, 109, 110, 112, 117 (3×), 118, 119, 120, 121 (2×), 124, 125 (3×), 126, 128 (2×), 129, 130, 135 (2×), 136, 137 (2×), 138, 141, 147, 150 % of control"
same,survivor count,[2],10 of 10 and 6 of 6
same,T/C,"dose: 25.0 mg/kg/injection, schedule: Q01DX009 (ip), vehicle: water",140 % of control
same,T/C,"dose: 25.0 mg/kg/injection, schedule: Q04DX005 (ip), vehicle: saline",127 % of control
same,T/C,"dose: 50.0 mg/kg/injection, schedule: Q01DX001 (ip), vehicle: saline, evaluated on day 5",110 % of control
same,T/C,"dose: 50.0 mg/kg/injection, schedule: Q01DX001 (ip), vehicle: saline, evaluated on day 60",107 (2×) and 118 % of control
same,survivor count,"dose: 50.0 mg/kg/injection, schedule: Q01DX001 (ip), vehicle: saline",6 of 6
same,T/C,"dose: 50.0 mg/kg/injection, schedule: Q01DX001 (ip), vehicle: water",127 % of control
same,T/C,"dose: 50.0 mg/kg/injection, schedule: Q01DX009 (ip), vehicle: Klucel (hydroxypropylcellulose) (HPC)",128 and 143 % of control
same,survivor count,"dose: 50.0 mg/kg/injection, schedule: Q01DX009 (ip), vehicle: saline with Tween-80",6 of 6
same,T/C,[3],"95, 100, 105, 107, 112, 119, 123 [5 of 6 alive], 125, 126, 129, 130, 131, 139, 145, 146, 147, 152, 154, 161, 162, 165 (2×), 167, 175, 202 % of control"
same,survivor count,[3],6 of 10 and 6 of 6
same,T/C,"dose: 50.0 mg/kg/injection, schedule: Q02DX009 (ip), vehicle: saline","134, 147, 149 % of control"
same,T/C,"dose: 50.0 mg/kg/injection, schedule: Q04DX003 (ip), vehicle: saline",128 % of control
same,T/C,"dose: 50.0 mg/kg/injection, schedule: Q08DX002 (ip), vehicle: saline",127 and 128 % of control
same,T/C,"dose: 50.0 mg/kg/injection, schedule: Q08DX003 (ip), vehicle: saline",133 % of control
same,T/C,"dose: 60.0 mg/kg/injection, schedule: Q04DX003 (ip), vehicle: saline",133 % of control
same,T/C,"dose: 62.22 mg/kg/injection, schedule: Q04DX003 (ip), vehicle: saline",139 % of control
same,T/C,"dose: 64.8 mg/kg/injection, schedule: Q08DX002 (ip), vehicle: saline",137 % of control
same,T/C,"dose: 75.0 mg/kg/injection, schedule: Q01DX001 (ip), vehicle: Klucel (hydroxypropylcellulose) (HPC)",128 % of control
same,T/C,"dose: 75.0 mg/kg/injection, schedule: Q01DX001 (ip), vehicle: saline with Tween-80, evaluated on day 45","105, 109, 110, 115 % of control"
same,T/C,"dose: 75.0 mg/kg/injection, schedule: Q01DX001 (ip), vehicle: saline with Tween-80, evaluated on day 60",105 and 109 % of control
same,T/C,"dose: 75.0 mg/kg/injection, schedule: Q01DX001 (ip), vehicle: saline","100, 102, 105, 106, 109, 109 [5 of 6 alive], 110, 110 [5 of 6 alive], 111 (3×), 113, 116, 117, 119, 120, 121 (4×), 122, 128, 131, 137, 140 % of control"
same,survivor count,"dose: 75.0 mg/kg/injection, schedule: Q01DX009 (ip), vehicle: saline",6 of 6
same,T/C,"dose: 100.0 mg/kg/injection, schedule: Q01DX001 (ip), vehicle: saline, evaluated on day 5",127 % of control
same,T/C,"dose: 100.0 mg/kg/injection, schedule: Q01DX001 (ip), vehicle: saline, evaluated on day 60",126 and 134 % of control (2×)
same,survivor count,"dose: 100.0 mg/kg/injection, schedule: Q01DX001 (ip), vehicle: saline",6 of 6
same,T/C,"dose: 100.0 mg/kg/injection, schedule: Q01DX001 (ip), vehicle: water",145 % of control
same,T/C,"dose: 100.0 mg/kg/injection, schedule: Q01DX009 (ip), vehicle: Klucel (hydroxypropylcellulose) (HPC)",143 % of control
same,survivor count,"dose: 100.0 mg/kg/injection, schedule: Q01DX009 (ip), vehicle: saline with Tween-80",6 of 6
same,T/C,[4],"87, 92, 95, 97, 100, 104, 105, 107 [5 of 6 alive], 117 (2×), 122, 129, 130, 157, 158, 167 % of control"
same,survivor count,[4],"6 of 10, 7 of 10, 5 of 6, 9 of 10, 10 of 10, 6 of 6, 7 of 7"
same,survivor count,"dose: 100.0 mg/kg/injection, schedule: Q01DX009 (ip), vehicle: water",5 of 5
same,T/C,"dose: 100.0 mg/kg/injection, schedule: Q02DX009 (ip), vehicle: saline",133 % of control
same,T/C,"dose: 100.0 mg/kg/injection, schedule: Q08DX002 (ip), vehicle: saline, evaluated on day 5",132 and 143 % of control
same,T/C,"dose: 100.0 mg/kg/injection, schedule: Q08DX002 (ip), vehicle: saline, evaluated on day 60",156 and 159 % of control
same,T/C,"dose: 150.0 mg/kg/injection, schedule: Q01DX001 (ip), vehicle: Klucel (hydroxypropylcellulose) (HPC)",125 and 146 % of control
same,T/C,"dose: 150.0 mg/kg/injection, schedule: Q01DX001 (ip), vehicle: saline with Tween-80, evaluated on day 45","115, 128, 130, 135 % of control"
same,T/C,"dose: 150.0 mg/kg/injection, schedule: Q01DX001 (ip), vehicle: saline with Tween-80, evaluated on day 60",105 and 111 % of control
same,T/C,"dose: 150.0 mg/kg/injection, schedule: Q01DX001 (ip), vehicle: saline","107, 111, 113, 115, 116, 118, 126, 127, 127 [5 of 6 alive], 131, 132, 133, 135, 138, 140, 141, 141 [5 of 6 alive], 142, 144, 145, 150, 152, 156, 167, 177 % of control"
same,survivor count,"dose: 150.0 mg/kg/injection, schedule: Q01DX009 (ip), vehicle: saline",6 of 6
same,T/C,"dose: 200.0 mg/kg/injection, schedule: Q01DX001 (ip), vehicle: saline, evaluated on day 5",156 % of control
same,T/C,"dose: 200.0 mg/kg/injection, schedule: Q01DX001 (ip), vehicle: saline, evaluated on day 10",139 % of control
same,T/C,"dose: 200.0 mg/kg/injection, schedule: Q01DX001 (ip), vehicle: saline, evaluated on day 60","153 [9 of 10 alive], 156, 163 % of control"
same,survivor count,"dose: 200.0 mg/kg/injection, schedule: Q01DX009 (ip), vehicle: saline","5 of 6, 10 of 10, 6 of 6, 7 of 7"
same,survivor count,"dose: 200.0 mg/kg/injection, schedule: Q02DX009 (ip), vehicle: saline",10 of 10
same,survivor count,"dose: 200.0 mg/kg/injection, schedule: Q04DX003 (ip), vehicle: saline",10 of 10
same,survivor count,"dose: 200.0 mg/kg/injection, schedule: Q04DX005 (ip), vehicle: saline",10 of 10
same,T/C,"dose: 200.0 mg/kg/injection, schedule: Q08DX002 (ip), vehicle: saline, evaluated on day 5",183 % of control (2×)
same,T/C,"dose: 200.0 mg/kg/injection, schedule: Q08DX002 (ip), vehicle: saline, evaluated on day 60",91 and 210 % of control
same,T/C,"dose: 200.0 mg/kg/injection, schedule: Q08DX003 (ip), vehicle: saline",128 % of control
same,survivor count,"dose: 240.0 mg/kg/injection, schedule: Q04DX003 (ip), vehicle: saline",10 of 10
same,survivor count,"dose: 300.0 mg/kg/injection, schedule: Q01DX001 (ip), vehicle: Klucel (hydroxypropylcellulose) (HPC)",5 of 6
same,T/C,"dose: 300.0 mg/kg/injection, schedule: Q01DX001 (ip), vehicle: saline with Tween-80, evaluated on day 45","140, 160 [5 of 6 alive], 161 % of control"
same,T/C,"dose: 300.0 mg/kg/injection, schedule: Q01DX001 (ip), vehicle: saline with Tween-80, evaluated on day 60",107 and 144 % of control
same,survivor count,"dose: 300.0 mg/kg/injection, schedule: Q01DX001 (ip), vehicle: saline with Tween-80",5 of 6
same,T/C,[5],"97 [4 of 6 alive], 105, 119 [4 of 6 alive], 125, 128 (2×), 133 [5 of 6 alive], 145, 147 [4 of 6 alive], 159 (2×), 160, 164 (2×), 165, 167, 178, 211 % of control"
same,survivor count,[5],"2 of 6, 3 of 6, 5 of 6, 6 of 6"
same,survivor count,"dose: 300.0 mg/kg/injection, schedule: Q01DX001 (ip), vehicle: water",9 of 10
same,survivor count,"dose: 300.0 mg/kg/injection, schedule: Q01DX009 (ip), vehicle: saline",5 of 6
same,T/C,"dose: 400.0 mg/kg/injection, schedule: Q01DX001 (ip), vehicle: saline, evaluated on day 5",42 % of control
same,T/C,"dose: 400.0 mg/kg/injection, schedule: Q01DX001 (ip), vehicle: saline, evaluated on day 60",107 % of control [9 of 10 alive]
same,survivor count,"dose: 400.0 mg/kg/injection, schedule: Q01DX001 (ip), vehicle: saline",8 of 10
same,survivor count,"dose: 400.0 mg/kg/injection, schedule: Q02DX009 (ip), vehicle: saline",4 of 10
same,survivor count,"dose: 400.0 mg/kg/injection, schedule: Q04DX003 (ip), vehicle: saline",6 of 10
same,survivor count,"dose: 400.0 mg/kg/injection, schedule: Q08DX002 (ip), vehicle: saline",1 of 10 and 10 of 10
same,survivor count,"dose: 400.0 mg/kg/injection, schedule: Q08DX003 (ip), vehicle: saline",7 of 10
